Library compounds against nucleic acid targets

Data from the ROBIN nucleic acid binder screens, doi:10.1002/anie.202211358.

Targets, with sequences 5′ to 3′:
TPP: TPP riboswitch RNA three-way junction, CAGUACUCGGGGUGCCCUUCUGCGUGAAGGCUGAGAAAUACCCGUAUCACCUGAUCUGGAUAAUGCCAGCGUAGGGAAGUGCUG. About 160 hits among about 24,000 compounds.
SAM-II: SAM-II riboswitch RNA pseudoknot, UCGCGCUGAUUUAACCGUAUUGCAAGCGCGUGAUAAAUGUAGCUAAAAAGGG. About 200 hits among about 21,000 compounds.
PreQ1: PreQ1 riboswitch RNA pseudoknot, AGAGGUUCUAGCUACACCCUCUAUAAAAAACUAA. From B. subtilis. About 170 hits among about 24,000 compounds.

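Compounds were printed on reactive glass slides in duplicate spots, a dye-labelled oligonucleotide was laid over them, and the fluorescence left after washing was read. For the PreQ1, TPP and SAM-II riboswitches the laboratory earlier reported (doi:10.1038/s41467-019-09493-3) 1 µM RNA, 2 h, and a rule that included a mean Z-score above 3 (spot signal-to-noise against the whole library), a score well above that on a control array, and duplicate spots agreeing (coefficient of variation under 100). The data file gives only the calls; its cut-offs may differ, and compounds hitting several targets are kept. These are primary screening calls, not affinities; a compound without a hit may have attached poorly or may still bind in solution.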 “hit” means called a hit, “none” means screened and not called a hit. Compounds were drawn at random from those tested, without regard to their results. A dash means that no call is listed here.

| Compound | TPP | SAM-II | PreQ1 |
|---|---|---|---|
| `CC(=O)Oc1ccc(-c2csc(Nc3cccc(C)c3)n2)cc1` | none | none | none |
| `NC(=O)CCn1cc(CN2CCOC3(CNCCOC3)C2)c2ccccc21` (stereo not given) | none | none | none |
| `CCN(CC)c1ccc(C2NCCc3[nH]cnc32)c(O)c1` (stereo not given) | none | none | none |
| `c1coc(CNCc2ccc(OCc3ccc4c(c3)OCCO4)cc2)c1` | none | none | none |
| `c1ccc2c(c1)nc(Nc1ccc(N3CCCCC3)cc1)c1nncn12` | none | none | none |
| `CCC(=O)c1ccc(OCC(O)CN2CCN(c3ccc(CC)cc3)CC2)cc1` (stereo not given) | none | none | none |
| `N#CC1=C(N)OC2=C(C(=O)CCC2)C12C(=O)Nc1ccc(Br)cc12` (stereo not given) | none | none | none |
| `Nc1nc(CNc2cc(-c3ccc(F)cc3)nc3ccnn23)n[nH]1` | none | none | none |
| `c1ccc(N2CCOCC2)c(Nc2nc3ccccc3n3cnnc23)c1` | none | none | none |
| `O=C1NC(=O)C(=Cc2ccc(-c3ccc(F)cc3)o2)S1` | none | none | none |
| `NC(=O)CCC(Nc1ncnc2ccccc12)C(=O)O` (stereo not given) | none | none | none |
| `O=c1c(NCc2ccccc2)c(-c2ccc(Cl)cc2)c1=O` | none | - | none |
| `COc1cc2nccc(Oc3ccc(NC(=O)C4(C(=O)Nc5ccc(F)cc5)CC4)cc3)c2cc1OC` | none | none | none |
| `O=S(=O)(c1ccccc1)c1cnc2ccc(F)cc2c1Nc1ccccc1` | none | - | none |
| `Nc1nc(Cl)cc(-c2ccccc2)n1` | none | none | none |
| `N#Cc1c2c(c(N3CCN(CCO)CC3)n3c1nc1ccccc13)CCCC2` | none | none | none |
| `COCCCn1cnnc1CNC1CCCC(C)(C)C1` (stereo not given) | none | none | none |
| `CNCc1ccc(OCc2ccc3c(c2)n(C)c(=O)n3C)c(OC)c1` | none | - | none |
| `CNc1ccccc1C(=O)NCC1CCN(Cc2ccncc2)CC1` | none | none | none |
| `CCC(=O)NCC[C@@H]1CCc2ccc3c(c21)CCO3` | none | none | none |
| `CCCc1c(C(=O)OCC)sc(N)c1C#N` | none | none | none |
| `Cc1nn(-c2ccccc2)c(C)c1CC(=O)NCc1cc2n(n1)CCCNC2` | none | none | none |
| `Cc1ccc(CNc2c(S(=O)(=O)c3ccccc3)cnc3ccc(F)cc23)cc1` | none | - | none |
| `Cc1cc(C(=O)N2C[C@@H](CN3CCOCC3)[C@@H](CO)C2)cs1` | none | none | none |
| `CC(C)(CO)NC(=O)C1CC(c2ccccc2O)=NO1` (stereo not given) | none | none | none |
| `O=C(O)c1cccc2c1C(=O)c1cccc3snc-2c13` | none | none | none |
| `CNC(=O)[C@@H]1C[C@H](n2cc(CNC(=O)Cc3ccc(F)cc3)nn2)CN1` | none | none | none |
| `CC1c2nc(N)nc(-c3ccncc3)c2CN1C(=O)c1ncn[nH]1` (stereo not given) | none | none | none |
| `OCC1(CCOc2ccccc2)CCCN(c2ncnc3[nH]ccc23)C1` (stereo not given) | none | none | none |
| `CCC[C@@H](NC(=O)[C@@H]1[C@H]2CCC[C@@H]2CN1C(=O)[C@@H](NC(=O)[C@@H](NC(=O)c1cnccn1)C1CCCCC1)C(C)(C)C)C(=O)C(=O)NC1CC1` | none | none | none |
| `O=C(CC1COCCN1)N1CCCN(Cc2cccnc2)CC1` (stereo not given) | none | none | none |
| `Cc1cc(C)c2c(n1)nn1c(NC3CCCC3)cc(C)nc21` | none | - | none |
| `Cc1cc2cccc(C(=O)N3[C@H]4CCNC[C@@H]3CC4)c2o1` | none | none | none |
| `COc1cc(N2CCN(c3nc(C)cc(C(F)(F)F)n3)CC2)nc(N)n1` | none | none | none |
| `Cc1cc(C)n(CCCC(=O)N2CC[C@@H](c3ccc4c(c3)OCO4)[C@H](O)C2)n1` | none | none | none |
| `Cc1cc(C(=O)NCc2cccnc2N2CCCC(O)C2)[nH]n1` (stereo not given) | none | none | none |
| `C=CCn1cc(CNCCOc2ccccc2Cl)c(C)n1` | none | none | none |
| `Cc1c(CO)c2ccccc2n1Cc1ccc(Cl)cc1` | none | none | none |
| `CCCc1c(C)nc2ncnn2c1Nc1cc(C)ccc1OC` | none | none | none |
| `Cc1ccsc1C1C(C#N)=C(N)OC2=C1C(=O)CCC2` (stereo not given) | none | none | none |
| `CCCOc1ccc(C2C(C#N)=C(N)Oc3[nH]nc(C(C)(C)C)c32)cc1` (stereo not given) | none | none | hit |
| `CN1CCN2c3ccccc3Cc3ccccc3C2C1` (stereo not given) | none | none | none |
| `Cc1cc(NCCO)n2nc(Cc3ccccc3)nc2n1` | none | - | none |
| `CCc1cccc2[nH]c3cc([N+](=O)[O-])ccc3c12` | none | none | none |
| `N=c1n(CCO)c2ccccc2n1CCN1CCCCC1` | none | none | none |
| `O=C(Cn1cccnc1=O)N(CC(O)c1ccccc1)C1CCCCC1` (stereo not given) | none | none | none |
| `COC(=O)c1sc(N2CCN(C(C)C)CC2)nc1N` | none | none | none |
| `COc1ccccc1S(=O)(=O)N1CCC2(CC1)CNC(C(=O)O)C2` (stereo not given) | none | none | none |
| `CN(C)S(=O)(=O)c1ccc(-c2nc(C#N)c(NCC3CCCO3)o2)cc1` (stereo not given) | none | - | none |
| `COc1ccc2ccc(=O)oc2c1CC=C(C)C` | none | none | none |
| `Cc1ccc2nc(CNCCc3nc(-c4cccnc4)n[nH]3)cc(O)c2c1` | none | none | none |
| `Cn1nc(C(F)(F)F)c2cc(C(=O)N3CCOCC(CO)C3)sc21` (stereo not given) | none | none | none |
| `CCOc1ccc(Cc2c(C)nc(N)nc2O)cc1` | none | none | none |
| `O=C(c1c[nH]nc1C1CCCCC1)N1CC(O)CO1` (stereo not given) | none | none | none |
| `Cn1c(=O)c2c(nc(NCCc3ccccc3)n2Cc2ccccc2F)n(C)c1=O` | none | none | none |
| `O=C(O)/C=C\c1cc2c(cc1[N+](=O)[O-])OCO2` | none | none | none |
| `CC(C)c1cc(C(=O)N2CCC(O)C2)cs1` (stereo not given) | none | none | none |
| `O=C(CN1C[C@@H]2CC[C@H](CC1=O)N2)N1CCC(Cc2ccc(F)cc2)CC1` | none | none | none |
| `O=C(Nc1cccc2c(=O)cc(-c3nn[nH]n3)oc12)c1ccc(OCCCCc2ccccc2)cc1` | none | none | none |
| `COC(=O)Nc1ccc(-c2ccc(C)nc2N)cc1` | none | none | none |

5 of the entries, repeated:

| Compound | TPP | SAM-II | PreQ1 |
|---|---|---|---|
| `CC1c2nc(N)nc(-c3ccncc3)c2CN1C(=O)c1ncn[nH]1` (stereo not given) | none | none | none |
| `O=C(Nc1cccc2c(=O)cc(-c3nn[nH]n3)oc12)c1ccc(OCCCCc2ccccc2)cc1` | none | none | none |
| `CCC(=O)NCC[C@@H]1CCc2ccc3c(c21)CCO3` | none | none | none |
| `Cc1cc(C(=O)NCc2cccnc2N2CCCC(O)C2)[nH]n1` (stereo not given) | none | none | none |
| `CN(C)S(=O)(=O)c1ccc(-c2nc(C#N)c(NCC3CCCO3)o2)cc1` (stereo not given) | none | - | none |